Data: article PMC12496174

Molecular target: T1, PLPPR3 S351 phospho-peptide LKRApSVDVDLLA
T1 sequence (peptide, phosphoserine (pS) at S351, the fifth residue of the peptide): LKRASVDVDLLA
Experiment: affinity purification with mass spectrometry; PLPPR3 pS351 or S351 peptide coupled to Sulfolink columns; 400 ul fresh adult mouse brain lysate (Ripa buffer) in 1600 ul PBS, 1.5 hours at room temperature; washed four times with PBS; eluted with 0.2 M glycine-HCl pH 2.5; SDS-PAGE, in-gel trypsin digest, LC-MS/MS, label-free quantification; four biological replicates; only the target purified

B1: brain acid soluble protein 1 (BASP1), endogenous in adult mouse brain lysate (protein, UniProt Q91XV3 1-226)
chain: MGGKLSKKKKGYNVNDEKAKDKDKKAEGAGTEEEGTPKESEPQAAADATEVKESTEEKPKDAADGEAKAEEKEADKAAAAKEEAPKAEPEKSEGAAEEQPEPAPAPEQEAAAPGPAAGGEAPKAGEASAESTGAADGAAPEEGEAKKTEAPAAAGPEAKSDAAPAASDSKPSSAEPAPSSKETPAASEAPSSAAKAPAPAAPAAAEPQAEAPAAAASSEQSVAVKE
binding: binds

Results are given in words; binding and its absence hold for the method and conditions named. Binding seen in cells or lysates may run through a third protein. A yes stands for co-enrichment or nearness to the bait. Other partners may have been found.
